Results are given in words; binding and its absence hold for the method and conditions named. Binding seen in cells or lysates may run through a third protein. Some entries that bind do so weakly or less than the wild type.
Tests used:
[1] = target: Solute Carrier Family 3 (activators of dibasic and neutral amino acid transport), Member 2 (human (endogenous in NB1, CLB-GE, CLB-BAR)) (UniProt P08195); test: co-IP; endogenous proteins; 300 µg lysate (IP buffer: 150 mM NaCl, 50 mM Tris-HCl, 1% Triton X-100, 1% glycerol) with 3 µg anti-ALK or anti-SLC3A2 overnight at 4 °C, Protein G Sepharose, washes with 500 mM NaCl buffer; immunoblot; NB1 cells treated with ALKAL2 (1 µg/ml); no lorlatinib
[2] = target: Solute Carrier Family 3 (activators of dibasic and neutral amino acid transport), Member 2 (human (endogenous in NB1, CLB-GE, CLB-BAR)) (UniProt P08195); test: co-IP; Sup. Fig. 1C; cell line and precipitating antibody not told in the text shown
[3] = target: Solute Carrier Family 3 (activators of dibasic and neutral amino acid transport), Member 2 (human (endogenous in NB1, CLB-GE, CLB-BAR)) (UniProt P08195); test: co-IP; endogenous proteins; 300 µg lysate (IP buffer: 150 mM NaCl, 50 mM Tris-HCl, 1% Triton X-100, 1% glycerol) with 3 µg anti-ALK or anti-SLC3A2 overnight at 4 °C, Protein G Sepharose, washes with 500 mM NaCl buffer; immunoblot; NB1 cells treated with ALKAL2 (1 µg/ml); no lorlatinib; remark: listed apart in the source

Chains of the proteins cited; added tags and fusions are not shown. Lines headed by an entry give the natural chain unless they say otherwise; changes in a name come on top. A line that says so, or that is headed by a name, gives the form on record, which may keep a tag or linker. Residues count along the entry.
UniProt P08195, residues 102-630: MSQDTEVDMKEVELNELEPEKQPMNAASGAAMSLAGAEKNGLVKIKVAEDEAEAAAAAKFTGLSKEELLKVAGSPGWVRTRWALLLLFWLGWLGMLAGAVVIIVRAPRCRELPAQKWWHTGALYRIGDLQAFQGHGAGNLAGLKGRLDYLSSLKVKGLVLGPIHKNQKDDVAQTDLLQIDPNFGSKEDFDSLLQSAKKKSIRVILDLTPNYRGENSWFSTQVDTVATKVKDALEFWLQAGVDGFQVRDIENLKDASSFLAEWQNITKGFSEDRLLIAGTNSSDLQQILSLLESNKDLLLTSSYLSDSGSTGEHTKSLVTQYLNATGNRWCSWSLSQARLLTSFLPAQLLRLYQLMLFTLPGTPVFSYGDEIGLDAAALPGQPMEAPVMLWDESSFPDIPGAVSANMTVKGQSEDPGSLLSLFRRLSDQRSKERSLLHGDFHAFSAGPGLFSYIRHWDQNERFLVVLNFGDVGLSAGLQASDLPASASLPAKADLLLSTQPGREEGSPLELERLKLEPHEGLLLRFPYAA
Anaplastic Lymphoma Kinase (ALK) receptor tyrosine kinase, wild type, endogenous in NB1 cells (Q9UM73, residues 19-1620): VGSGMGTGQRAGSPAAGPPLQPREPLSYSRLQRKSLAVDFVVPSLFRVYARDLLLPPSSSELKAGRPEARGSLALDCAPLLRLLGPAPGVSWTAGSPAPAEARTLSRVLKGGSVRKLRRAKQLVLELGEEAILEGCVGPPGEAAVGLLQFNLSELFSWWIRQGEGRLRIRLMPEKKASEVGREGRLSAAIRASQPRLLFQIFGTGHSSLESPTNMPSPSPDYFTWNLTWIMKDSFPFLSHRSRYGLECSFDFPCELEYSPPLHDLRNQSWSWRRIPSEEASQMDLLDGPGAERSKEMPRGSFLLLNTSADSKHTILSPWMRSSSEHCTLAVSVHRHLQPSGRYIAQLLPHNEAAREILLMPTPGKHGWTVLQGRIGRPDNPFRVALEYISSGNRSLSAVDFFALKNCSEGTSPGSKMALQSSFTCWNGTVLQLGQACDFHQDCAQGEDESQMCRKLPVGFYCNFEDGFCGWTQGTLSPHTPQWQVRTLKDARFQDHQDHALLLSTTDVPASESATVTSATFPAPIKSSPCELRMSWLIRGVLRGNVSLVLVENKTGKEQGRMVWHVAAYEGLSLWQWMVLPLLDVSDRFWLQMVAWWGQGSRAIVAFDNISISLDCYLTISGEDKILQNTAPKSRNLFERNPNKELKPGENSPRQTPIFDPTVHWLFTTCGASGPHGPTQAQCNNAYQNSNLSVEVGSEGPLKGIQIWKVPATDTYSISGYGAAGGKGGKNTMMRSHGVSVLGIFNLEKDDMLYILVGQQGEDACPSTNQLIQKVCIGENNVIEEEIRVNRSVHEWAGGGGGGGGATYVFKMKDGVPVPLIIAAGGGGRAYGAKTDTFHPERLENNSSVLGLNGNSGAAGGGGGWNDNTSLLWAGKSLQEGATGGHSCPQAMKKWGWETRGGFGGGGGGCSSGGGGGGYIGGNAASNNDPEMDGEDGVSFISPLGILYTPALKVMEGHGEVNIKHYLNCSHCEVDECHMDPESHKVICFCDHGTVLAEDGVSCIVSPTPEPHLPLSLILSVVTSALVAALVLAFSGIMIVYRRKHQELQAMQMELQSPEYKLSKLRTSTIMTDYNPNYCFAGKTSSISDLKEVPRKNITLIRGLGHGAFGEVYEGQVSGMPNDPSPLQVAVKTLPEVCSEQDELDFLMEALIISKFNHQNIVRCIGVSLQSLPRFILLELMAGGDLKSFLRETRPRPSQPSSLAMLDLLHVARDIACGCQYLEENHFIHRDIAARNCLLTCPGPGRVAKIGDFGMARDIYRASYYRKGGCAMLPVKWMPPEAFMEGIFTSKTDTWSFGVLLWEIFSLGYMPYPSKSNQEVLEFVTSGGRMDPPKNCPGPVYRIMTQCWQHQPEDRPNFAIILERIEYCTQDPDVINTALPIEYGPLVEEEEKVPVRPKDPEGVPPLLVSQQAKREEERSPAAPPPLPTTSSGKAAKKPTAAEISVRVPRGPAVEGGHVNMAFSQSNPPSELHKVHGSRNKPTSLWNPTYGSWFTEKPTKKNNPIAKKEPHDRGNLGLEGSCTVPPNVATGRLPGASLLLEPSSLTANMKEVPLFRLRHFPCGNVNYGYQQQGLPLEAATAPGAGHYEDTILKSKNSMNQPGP
Anaplastic Lymphoma Kinase (ALK) F1174V, endogenous in CLB-GE cells (Q9UM73, form named): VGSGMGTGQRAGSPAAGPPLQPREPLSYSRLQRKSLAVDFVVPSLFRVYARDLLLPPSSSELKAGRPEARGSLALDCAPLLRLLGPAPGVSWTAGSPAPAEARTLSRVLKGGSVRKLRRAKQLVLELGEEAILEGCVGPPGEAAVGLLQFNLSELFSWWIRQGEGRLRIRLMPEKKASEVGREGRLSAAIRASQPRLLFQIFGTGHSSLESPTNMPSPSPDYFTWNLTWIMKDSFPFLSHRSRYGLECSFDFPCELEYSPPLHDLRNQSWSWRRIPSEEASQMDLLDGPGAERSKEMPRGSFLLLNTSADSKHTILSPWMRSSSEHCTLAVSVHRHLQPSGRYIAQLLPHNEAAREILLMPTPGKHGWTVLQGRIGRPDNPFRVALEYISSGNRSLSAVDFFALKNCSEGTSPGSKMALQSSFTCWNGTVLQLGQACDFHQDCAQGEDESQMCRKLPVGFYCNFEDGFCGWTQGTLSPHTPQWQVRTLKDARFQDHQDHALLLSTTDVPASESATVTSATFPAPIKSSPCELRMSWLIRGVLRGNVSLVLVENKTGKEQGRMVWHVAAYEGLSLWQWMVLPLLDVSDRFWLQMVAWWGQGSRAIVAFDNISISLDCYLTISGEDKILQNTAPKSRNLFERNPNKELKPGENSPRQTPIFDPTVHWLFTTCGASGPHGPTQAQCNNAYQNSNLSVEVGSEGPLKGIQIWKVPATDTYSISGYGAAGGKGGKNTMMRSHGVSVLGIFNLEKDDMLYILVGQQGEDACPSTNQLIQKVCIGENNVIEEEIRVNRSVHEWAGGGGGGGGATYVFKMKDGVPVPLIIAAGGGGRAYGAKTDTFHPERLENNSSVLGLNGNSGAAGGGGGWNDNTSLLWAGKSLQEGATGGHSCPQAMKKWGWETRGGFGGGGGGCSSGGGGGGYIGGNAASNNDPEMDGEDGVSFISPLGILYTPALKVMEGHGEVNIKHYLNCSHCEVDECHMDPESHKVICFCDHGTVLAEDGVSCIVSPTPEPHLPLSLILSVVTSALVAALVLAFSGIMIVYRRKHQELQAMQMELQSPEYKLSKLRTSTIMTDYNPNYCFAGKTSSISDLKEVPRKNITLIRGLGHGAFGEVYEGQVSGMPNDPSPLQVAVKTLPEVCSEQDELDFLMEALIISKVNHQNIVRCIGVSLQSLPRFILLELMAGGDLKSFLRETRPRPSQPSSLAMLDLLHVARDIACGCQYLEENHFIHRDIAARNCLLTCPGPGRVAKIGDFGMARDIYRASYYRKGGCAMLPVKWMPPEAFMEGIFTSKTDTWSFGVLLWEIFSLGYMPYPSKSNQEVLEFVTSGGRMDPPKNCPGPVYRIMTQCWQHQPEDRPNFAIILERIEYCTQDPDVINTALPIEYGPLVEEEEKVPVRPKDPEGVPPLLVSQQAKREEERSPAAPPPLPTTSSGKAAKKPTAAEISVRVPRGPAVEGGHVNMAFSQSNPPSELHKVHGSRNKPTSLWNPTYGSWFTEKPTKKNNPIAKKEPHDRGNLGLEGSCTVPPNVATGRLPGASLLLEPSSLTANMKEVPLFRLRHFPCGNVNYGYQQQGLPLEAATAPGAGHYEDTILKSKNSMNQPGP
UniProt Q01650: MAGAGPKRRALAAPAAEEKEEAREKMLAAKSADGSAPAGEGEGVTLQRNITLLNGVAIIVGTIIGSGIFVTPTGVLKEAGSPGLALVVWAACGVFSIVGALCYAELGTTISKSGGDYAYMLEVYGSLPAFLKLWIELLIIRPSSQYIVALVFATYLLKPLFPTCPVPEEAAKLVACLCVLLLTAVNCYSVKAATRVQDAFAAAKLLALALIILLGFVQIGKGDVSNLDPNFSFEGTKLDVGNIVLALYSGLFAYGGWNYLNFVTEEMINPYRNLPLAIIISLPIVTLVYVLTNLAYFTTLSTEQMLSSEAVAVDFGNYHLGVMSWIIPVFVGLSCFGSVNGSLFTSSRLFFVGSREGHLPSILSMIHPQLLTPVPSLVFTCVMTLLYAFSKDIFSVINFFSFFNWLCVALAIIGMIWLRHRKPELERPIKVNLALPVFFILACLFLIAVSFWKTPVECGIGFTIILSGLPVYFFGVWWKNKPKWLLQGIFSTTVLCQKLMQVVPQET

“Anaplastic Lymphoma Kinase (ALK) F1174V, endogenous in CLB-GE cells (from UniProt Q9UM73 19-1620) (receptor)” was tested, and the binding [1] was “binds”.

With “Anaplastic Lymphoma Kinase (ALK) receptor tyrosine kinase, wild type, endogenous in NB1 cells (from UniProt Q9UM73 19-1620)” the binding [1] was “binds”.

SLC7A5 (from UniProt Q01650 1-507) was tested, and the binding [2] was “binds”.

B1: MARCH11 E3 ligase, endogenous in CLB-BAR cells (enzyme, UniProt A6NNE9 1-402)
chain: MSFEGGHGGSRCRGAESGDAEPPPQPPPPPPPTPPPGEPAPVPAAPRYLPPLPASPETPERAAGPSEPLGEVAPRCRGADELPPPPLPLQPAGQEVAAAGDSGEGPRRLPEAAAAKGGPGESEAGAGGERERRGAGDQPETRSVCSSRSSSSGGGDQRAGHQHQHHQPICKICFQGAEQGELLNPCRCDGSVRYTHQLCLLKWISERGSWTCELCCYRYHVIAIKMKQPCQWQSISITLVEKVQMIAVILGSLFLIASVTWLLWSAFSPYAVWQRKDILFQICYGMYGFMDLVCIGLIVHEGAAVYRVFKRWRAVNLHWDVLNYDKATDIEESSRGESSTSRTLWLPLTALRNRNLVHPTQLTSPRFQCGYVLLHLFNRMRPHEDLSEDNSSGEVVMRVTSV
With B1 the binding [3] was “binds”.

Reference: paper PMC11239919
